Source: the supplement of paper PMC10849652
The list shows a part of the results.

Sequences of proteins named here, by UniProt entry; tags and fusion partners are left off. A change or cut given only in a name is not applied to a line headed by its entry.
UniProt Q15125: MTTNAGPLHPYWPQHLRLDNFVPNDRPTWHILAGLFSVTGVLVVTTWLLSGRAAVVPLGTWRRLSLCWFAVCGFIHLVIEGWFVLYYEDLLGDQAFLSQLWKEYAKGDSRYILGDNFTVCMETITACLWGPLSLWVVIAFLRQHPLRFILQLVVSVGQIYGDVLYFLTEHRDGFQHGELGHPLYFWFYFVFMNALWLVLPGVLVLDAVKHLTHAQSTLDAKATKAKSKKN
UniProt P63167, whole entry, looked up: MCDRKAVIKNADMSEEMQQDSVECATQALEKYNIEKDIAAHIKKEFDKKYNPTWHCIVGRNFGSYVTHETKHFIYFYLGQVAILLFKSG
UniProt Q9BQ95: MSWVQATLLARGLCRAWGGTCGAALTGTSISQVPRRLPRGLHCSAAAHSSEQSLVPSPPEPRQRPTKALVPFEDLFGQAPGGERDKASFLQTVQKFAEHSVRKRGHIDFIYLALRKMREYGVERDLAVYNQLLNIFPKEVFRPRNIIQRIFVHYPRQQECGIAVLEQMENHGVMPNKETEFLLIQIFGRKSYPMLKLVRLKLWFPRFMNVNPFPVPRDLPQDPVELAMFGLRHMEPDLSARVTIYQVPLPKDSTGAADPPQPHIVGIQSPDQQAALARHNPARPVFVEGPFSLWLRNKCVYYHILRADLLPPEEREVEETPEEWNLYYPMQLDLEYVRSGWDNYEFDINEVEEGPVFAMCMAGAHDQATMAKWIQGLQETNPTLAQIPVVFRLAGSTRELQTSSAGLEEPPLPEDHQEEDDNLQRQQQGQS
UniProt Q99543: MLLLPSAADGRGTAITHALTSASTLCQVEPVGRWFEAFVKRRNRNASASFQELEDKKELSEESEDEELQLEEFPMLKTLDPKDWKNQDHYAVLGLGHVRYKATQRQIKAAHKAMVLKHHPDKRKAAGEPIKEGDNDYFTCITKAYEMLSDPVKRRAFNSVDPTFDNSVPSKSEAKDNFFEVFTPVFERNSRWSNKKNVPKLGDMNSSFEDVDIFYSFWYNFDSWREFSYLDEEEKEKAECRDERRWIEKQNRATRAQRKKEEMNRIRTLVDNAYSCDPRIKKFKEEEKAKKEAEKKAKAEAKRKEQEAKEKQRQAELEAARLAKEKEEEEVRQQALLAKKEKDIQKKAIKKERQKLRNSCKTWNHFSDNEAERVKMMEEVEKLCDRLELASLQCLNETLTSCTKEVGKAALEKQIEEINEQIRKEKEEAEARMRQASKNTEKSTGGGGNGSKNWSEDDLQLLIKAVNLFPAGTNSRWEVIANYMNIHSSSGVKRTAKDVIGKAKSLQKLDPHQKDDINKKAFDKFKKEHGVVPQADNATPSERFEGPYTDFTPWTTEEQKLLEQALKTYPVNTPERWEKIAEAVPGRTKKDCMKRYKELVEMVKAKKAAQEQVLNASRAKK
UniProt P42126: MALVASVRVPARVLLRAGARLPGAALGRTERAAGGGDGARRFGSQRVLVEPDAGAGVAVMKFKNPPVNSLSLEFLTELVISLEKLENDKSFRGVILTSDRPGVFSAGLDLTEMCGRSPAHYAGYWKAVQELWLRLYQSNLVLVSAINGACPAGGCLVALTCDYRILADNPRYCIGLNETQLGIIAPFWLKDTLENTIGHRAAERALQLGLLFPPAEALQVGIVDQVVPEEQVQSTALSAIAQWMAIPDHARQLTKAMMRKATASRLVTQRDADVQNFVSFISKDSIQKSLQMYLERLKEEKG
UniProt O00429, whole entry, looked up: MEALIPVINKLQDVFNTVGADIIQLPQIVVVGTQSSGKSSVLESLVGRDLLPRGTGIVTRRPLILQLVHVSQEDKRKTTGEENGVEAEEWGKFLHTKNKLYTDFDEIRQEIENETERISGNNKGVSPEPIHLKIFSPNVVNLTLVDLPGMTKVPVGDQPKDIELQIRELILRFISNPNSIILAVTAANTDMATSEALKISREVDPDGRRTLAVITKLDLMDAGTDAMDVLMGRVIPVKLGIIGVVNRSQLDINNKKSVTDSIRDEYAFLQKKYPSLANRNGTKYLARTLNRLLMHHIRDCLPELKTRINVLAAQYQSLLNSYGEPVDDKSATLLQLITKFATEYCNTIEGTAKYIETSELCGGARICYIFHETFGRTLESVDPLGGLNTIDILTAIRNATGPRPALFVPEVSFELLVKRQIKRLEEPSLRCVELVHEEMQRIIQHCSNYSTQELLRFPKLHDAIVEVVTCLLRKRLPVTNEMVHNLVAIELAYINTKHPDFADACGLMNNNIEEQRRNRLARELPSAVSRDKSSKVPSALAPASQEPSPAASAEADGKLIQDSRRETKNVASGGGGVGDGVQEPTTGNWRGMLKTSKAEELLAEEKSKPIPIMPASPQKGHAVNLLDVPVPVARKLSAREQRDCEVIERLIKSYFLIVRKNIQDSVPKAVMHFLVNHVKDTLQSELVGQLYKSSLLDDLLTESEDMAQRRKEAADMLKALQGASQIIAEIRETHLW
UniProt Q92785, whole entry, looked up: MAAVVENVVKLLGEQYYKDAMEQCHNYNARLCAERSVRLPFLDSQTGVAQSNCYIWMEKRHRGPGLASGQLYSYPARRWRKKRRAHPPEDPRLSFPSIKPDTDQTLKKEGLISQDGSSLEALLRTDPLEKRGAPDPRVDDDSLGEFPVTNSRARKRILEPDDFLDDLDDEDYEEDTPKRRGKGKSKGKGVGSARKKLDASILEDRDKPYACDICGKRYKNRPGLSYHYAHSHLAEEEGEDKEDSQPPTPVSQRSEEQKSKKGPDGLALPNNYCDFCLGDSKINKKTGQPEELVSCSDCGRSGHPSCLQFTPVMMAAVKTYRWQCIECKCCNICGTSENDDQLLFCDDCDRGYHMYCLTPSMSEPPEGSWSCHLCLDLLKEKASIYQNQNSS
UniProt Q9UDY4: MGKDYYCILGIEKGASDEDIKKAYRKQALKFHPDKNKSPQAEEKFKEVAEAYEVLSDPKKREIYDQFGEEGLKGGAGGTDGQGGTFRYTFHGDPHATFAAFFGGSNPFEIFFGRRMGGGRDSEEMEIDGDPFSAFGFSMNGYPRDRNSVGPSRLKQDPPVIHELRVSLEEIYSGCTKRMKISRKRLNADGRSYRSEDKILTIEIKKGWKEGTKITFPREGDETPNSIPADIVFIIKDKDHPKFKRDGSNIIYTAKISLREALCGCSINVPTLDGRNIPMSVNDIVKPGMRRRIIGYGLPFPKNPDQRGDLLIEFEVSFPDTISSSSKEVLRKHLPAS
UniProt Q8TEA8: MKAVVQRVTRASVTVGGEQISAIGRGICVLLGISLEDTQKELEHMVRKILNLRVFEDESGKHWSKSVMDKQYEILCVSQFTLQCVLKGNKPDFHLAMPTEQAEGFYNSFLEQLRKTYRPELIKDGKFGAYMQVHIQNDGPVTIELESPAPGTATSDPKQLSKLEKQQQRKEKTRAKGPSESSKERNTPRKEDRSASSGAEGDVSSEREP
UniProt Q01658: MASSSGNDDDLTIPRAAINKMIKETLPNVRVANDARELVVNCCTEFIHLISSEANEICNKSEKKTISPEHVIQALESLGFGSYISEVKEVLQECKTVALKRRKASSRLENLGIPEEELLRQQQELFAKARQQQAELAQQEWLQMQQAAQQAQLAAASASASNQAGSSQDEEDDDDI
UniProt Q9C005, whole entry, looked up: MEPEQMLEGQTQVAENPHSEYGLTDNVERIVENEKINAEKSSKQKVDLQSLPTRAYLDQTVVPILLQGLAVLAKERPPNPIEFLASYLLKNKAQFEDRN
UniProt O75190: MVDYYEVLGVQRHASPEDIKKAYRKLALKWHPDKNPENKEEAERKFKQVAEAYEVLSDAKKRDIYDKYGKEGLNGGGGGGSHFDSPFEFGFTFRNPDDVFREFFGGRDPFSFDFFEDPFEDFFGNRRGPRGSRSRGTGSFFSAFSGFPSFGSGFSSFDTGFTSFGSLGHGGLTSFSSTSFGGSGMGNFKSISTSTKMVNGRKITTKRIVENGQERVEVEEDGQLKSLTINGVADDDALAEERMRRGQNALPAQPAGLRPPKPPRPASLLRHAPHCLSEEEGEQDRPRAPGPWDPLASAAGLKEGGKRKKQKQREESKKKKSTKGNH
UniProt Q9BZ29: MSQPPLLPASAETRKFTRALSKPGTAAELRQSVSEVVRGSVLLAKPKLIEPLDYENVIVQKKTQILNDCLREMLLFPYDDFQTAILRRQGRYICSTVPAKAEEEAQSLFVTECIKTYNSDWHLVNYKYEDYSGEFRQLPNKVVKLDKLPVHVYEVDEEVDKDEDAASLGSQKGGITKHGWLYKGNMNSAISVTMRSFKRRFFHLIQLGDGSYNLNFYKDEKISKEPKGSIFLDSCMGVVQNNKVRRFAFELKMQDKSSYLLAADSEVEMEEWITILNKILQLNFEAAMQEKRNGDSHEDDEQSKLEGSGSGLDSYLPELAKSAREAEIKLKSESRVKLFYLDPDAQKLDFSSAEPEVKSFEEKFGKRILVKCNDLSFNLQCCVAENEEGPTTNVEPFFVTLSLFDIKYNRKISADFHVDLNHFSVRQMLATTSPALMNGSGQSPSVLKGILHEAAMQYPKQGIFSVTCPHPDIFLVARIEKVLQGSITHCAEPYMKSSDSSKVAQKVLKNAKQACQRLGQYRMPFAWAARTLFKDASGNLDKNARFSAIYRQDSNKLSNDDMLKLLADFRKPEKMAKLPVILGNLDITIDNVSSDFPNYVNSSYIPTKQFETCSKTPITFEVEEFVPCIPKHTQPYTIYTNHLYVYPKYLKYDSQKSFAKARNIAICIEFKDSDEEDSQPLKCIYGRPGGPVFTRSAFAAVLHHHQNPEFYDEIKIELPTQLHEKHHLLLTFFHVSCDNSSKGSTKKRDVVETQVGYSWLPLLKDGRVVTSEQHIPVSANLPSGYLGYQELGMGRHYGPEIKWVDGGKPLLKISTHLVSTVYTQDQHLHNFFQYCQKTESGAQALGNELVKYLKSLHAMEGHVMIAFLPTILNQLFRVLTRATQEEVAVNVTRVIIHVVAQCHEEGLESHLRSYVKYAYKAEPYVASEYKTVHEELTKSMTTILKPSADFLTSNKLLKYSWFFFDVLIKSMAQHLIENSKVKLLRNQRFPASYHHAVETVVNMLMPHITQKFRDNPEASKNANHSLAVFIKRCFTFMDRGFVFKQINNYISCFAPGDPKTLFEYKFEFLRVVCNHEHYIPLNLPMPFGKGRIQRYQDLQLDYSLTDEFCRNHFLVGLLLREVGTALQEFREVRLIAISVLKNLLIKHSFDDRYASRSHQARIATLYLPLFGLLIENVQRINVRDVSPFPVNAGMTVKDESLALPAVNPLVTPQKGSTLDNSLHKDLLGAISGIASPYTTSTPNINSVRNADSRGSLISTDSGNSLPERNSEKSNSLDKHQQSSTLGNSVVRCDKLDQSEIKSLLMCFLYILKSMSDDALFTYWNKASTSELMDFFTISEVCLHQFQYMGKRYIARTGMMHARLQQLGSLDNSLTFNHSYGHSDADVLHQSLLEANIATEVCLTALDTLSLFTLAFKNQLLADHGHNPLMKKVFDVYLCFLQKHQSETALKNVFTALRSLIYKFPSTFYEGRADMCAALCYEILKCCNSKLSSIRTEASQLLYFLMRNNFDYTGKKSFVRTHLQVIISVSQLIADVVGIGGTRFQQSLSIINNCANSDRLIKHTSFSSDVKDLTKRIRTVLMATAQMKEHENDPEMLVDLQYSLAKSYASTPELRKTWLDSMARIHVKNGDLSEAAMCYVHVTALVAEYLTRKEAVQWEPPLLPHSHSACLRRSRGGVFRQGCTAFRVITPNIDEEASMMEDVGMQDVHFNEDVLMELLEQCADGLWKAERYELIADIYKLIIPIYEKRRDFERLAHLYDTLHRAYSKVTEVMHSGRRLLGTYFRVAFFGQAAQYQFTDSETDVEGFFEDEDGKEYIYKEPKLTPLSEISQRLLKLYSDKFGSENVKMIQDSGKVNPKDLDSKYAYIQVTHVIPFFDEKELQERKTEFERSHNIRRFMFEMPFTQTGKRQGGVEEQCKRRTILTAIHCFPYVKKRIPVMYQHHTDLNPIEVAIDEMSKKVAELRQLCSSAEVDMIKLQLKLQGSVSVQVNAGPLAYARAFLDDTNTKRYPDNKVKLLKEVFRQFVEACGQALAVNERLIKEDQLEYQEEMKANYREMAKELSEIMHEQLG
UniProt O00115: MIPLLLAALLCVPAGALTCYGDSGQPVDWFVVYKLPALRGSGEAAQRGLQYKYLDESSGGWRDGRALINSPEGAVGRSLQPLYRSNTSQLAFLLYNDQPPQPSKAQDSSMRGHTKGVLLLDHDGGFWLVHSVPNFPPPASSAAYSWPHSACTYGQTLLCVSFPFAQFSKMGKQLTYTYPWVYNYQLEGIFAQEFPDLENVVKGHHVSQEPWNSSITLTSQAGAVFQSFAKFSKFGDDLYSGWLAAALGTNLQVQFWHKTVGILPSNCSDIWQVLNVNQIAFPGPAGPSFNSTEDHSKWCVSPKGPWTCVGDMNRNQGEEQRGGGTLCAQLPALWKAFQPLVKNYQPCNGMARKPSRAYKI
UniProt P51452: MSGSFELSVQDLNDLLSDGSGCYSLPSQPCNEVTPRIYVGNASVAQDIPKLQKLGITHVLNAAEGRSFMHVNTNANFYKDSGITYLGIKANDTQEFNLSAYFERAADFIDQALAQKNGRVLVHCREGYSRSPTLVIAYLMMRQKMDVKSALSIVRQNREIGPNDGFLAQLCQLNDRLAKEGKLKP

compound: CC[C@@H]1C(=O)N(C)c2cnc(Nc3ccc(C(=O)NC4CCN(C)CC4)cc3OC)nc2N1C1CCCC1; experiment: log2 fold change, soluble protein after heating vs DMSO (PISA); higher = thermal stabilisation; K562 cells, 10 uM, 30 min; active = over 0.2 and 3.5 SD of the protein, either way, in both replicates (recomputed)
In short: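 K562 cells at 2×10^6 cells/mL were exposed to 10 μM compound for 30 min, then aliquots were heated for 3 min across 48°C-58°C, pooled, and extracted in PBS containing 0.5% NP-40 at 4°C. The supernatant after 21,000xg for 90 min was taken as soluble protein and measured by TMTpro 16plex LC-MS/MS with channel sums equalised. Thermal stability is reported relative to control samples, with values from duplicates. Fold changes are given on a log2 scale.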

log2 fold change, inactive:
EDEM1 (UniProt Q92611) 0.029
EBP (UniProt Q15125) 0.104
DYNLL1 (UniProt P63167) -0.014
DPH6 (UniProt Q7L8W6) -0.139
ECSIT (UniProt Q9BQ95) 0.003
DNAJC9 (UniProt Q8WXX5) -0.069
DNAJC2 (UniProt Q99543) 0.036
ECI1 (UniProt P42126) 0.01
DNM1L isoform 6 (UniProt O00429) -0.017
DPF2 (UniProt Q92785) -0.04
DNAJB4 (UniProt Q9UDY4) 0.041
ECHDC1 (UniProt Q9NTX5) 0.048
DTD1 (UniProt Q8TEA8) 0.034
DR1 (UniProt Q01658) 0.017
DPY30 (UniProt Q9C005) -0.032
DNAJB6 (UniProt O75190) 0.054
DOCK9 isoform 4 (UniProt Q9BZ29) -0.039
DPP7 (UniProt Q9UHL4) -0.037
DNASE2 (UniProt O00115) -0.134
DUSP3 (UniProt P51452) -0.012
DSG2 (UniProt Q14126) 0.003
DNAJC17 (UniProt Q9NVM6) -0.003
DPH2 (UniProt Q9BQC3) 0.002

Retrieved one by one from the list above (2):
log2 fold change, inactive:
DNAJC2 (UniProt Q99543) 0.036
DUSP3 (UniProt P51452) -0.012
